# The list shows a part of the results.
# B1: EUL D1A second (Oryza sativa) (protein)
# chain: GAATACTIGGVPVHTVRVFSAAGEDYCLTVRNGTACLAPKNPRDDYQHWIKDMRHSNKIRDEEGYPAFALVNKVTGEAIKHSTGQGHPVKLVPYNPEYQDESVLWTESKDVGKGFRCIRMVNNIYLNFDAFHGDKDHGGIHDGTEIVLWKWCEGDNQRWKILPWILEQKLISEEDLNSAVDHHHHHH
# Experiments:
# Assay in all cases: glycan array binding signal (z-score within array); higher = stronger binding
# Details in all cases: glycan notation: IUPAC condensed, linker removed
# [1] = molecular target: Neu5Ac(a2-3)Gal(b1-3)GlcNAc6S
# Summary of the method: (§1)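 Negative Z-scores can be read as non-binding. The Z-score is calculated within each array and then averaged across arrays of one protein sequence at different concentrations or buffers and across linkers. Arrays, 3228 in all, were curated from the Consortium for Functional Glycomics database and kept only where the protein sequence was available.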
# [2] = molecular target: Neu5Ac(a2-3)Gal(b1-3)[Fuc(a1-4)]GlcNAc
# Summary of the method: as §1
# [3] = molecular target: Neu5Ac(a2-3)Gal(b1-3)[Fuc(a1-4)]GlcNAc(b1-3)Gal(b1-3)[Fuc(a1-4)]GlcNAc
# Summary of the method: as §1
# [4] = molecular target: Neu5Ac(a2-3)Gal(b1-3)[Fuc(a1-4)]GlcNAc(b1-3)Gal(b1-4)[Fuc(a1-3)]GlcNAc
# Summary of the method: as §1
# [5] = molecular target: Neu5Ac(a2-3)Gal(b1-3)[GlcNAc(b1-6)]GalNAc
# Summary of the method: as §1
# [6] = molecular target: Neu5Ac(a2-3)Gal(b1-3)[Neu5Ac(a2-6)]GalNAc
# Summary of the method: as §1
# [7] = molecular target: Neu5Ac(a2-3)Gal(b1-3)[Neu5Ac(a2-6)]GlcNAc(b1-3)[Fuc(a1-3)[Gal(b1-4)]GlcNAc(b1-6)]Gal(b1-4)Glc
# Summary of the method: as §1
# [8] = molecular target: Neu5Ac(a2-3)Gal(b1-3)]Neu5Ac(a2-3)Gal(b1-4)]GlcNAc
# Summary of the method: as §1
# Neu5Ac(a2-3)Gal(b1-4)Glc = molecular target: Neu5Ac(a2-3)Gal(b1-4)Glc
# Summary of the method: as §1
# [9] = molecular target: Neu5Ac(a2-3)Gal(b1-4)GlcNAc
# Summary of the method: as §1
# [10] = molecular target: Neu5Ac(a2-3)Gal(b1-4)GlcNAc(b1-2)Man
# Summary of the method: as §1
# [11] = molecular target: Neu5Ac(a2-3)Gal(b1-4)GlcNAc(b1-2)Man(a1-3)[GlcNAc(b1-4)][Neu5Ac(a2-3)Gal(b1-4)GlcNAc(b1-2)Man(a1-6)]Man(b1-4)GlcNAc(b1-4)GlcNAc
# Summary of the method: as §1
# [12] = molecular target: Neu5Ac(a2-3)Gal(b1-4)GlcNAc(b1-2)Man(a1-3)[Neu5Ac(a2-3)Gal(b1-4)GlcNAc(b1-2)Man(a1-6)]Man(b1-4)GlcNAc(b1-4)GlcNAc
# Summary of the method: as §1
# [13] = molecular target: Neu5Ac(a2-3)Gal(b1-4)GlcNAc(b1-2)Man(a1-3)[Neu5Ac(a2-3)Gal(b1-4)GlcNAc(b1-2)Man(a1-6)]Man(b1-4)GlcNAc(b1-4)[Fuc(a1-6)]GlcNAc
# Summary of the method: as §1
# [14] = molecular target: Neu5Ac(a2-3)Gal(b1-4)GlcNAc(b1-2)Man(a1-3)[Neu5Ac(a2-6)Gal(b1-4)GlcNAc(b1-2)Man(a1-6)]Man(b1-4)GlcNAc(b1-4)GlcNAc
# Summary of the method: as §1
# [15] = molecular target: Neu5Ac(a2-3)Gal(b1-4)GlcNAc(b1-2)[Neu5Ac(a2-3)Gal(b1-4)GlcNAc(b1-4)]Man(a1-3)[GlcNAc(b1-4)][Neu5Ac(a2-3)Gal(b1-4)GlcNAc(b1-2)[Neu5Ac(a2-3)Gal(b1-4)GlcNAc(b1-6)]Man(a1-6)]Man(b1-4)GlcNAc(b1-4)GlcNAc
# Summary of the method: as §1
# [16] = molecular target: Neu5Ac(a2-3)Gal(b1-4)GlcNAc(b1-2)[Neu5Ac(a2-3)Gal(b1-4)GlcNAc(b1-4)]Man(a1-3)[GlcNAc(b1-4)][Neu5Ac(a2-3)Gal(b1-4)GlcNAc(b1-4)Man(a1-6)]Man(b1-4)GlcNAc(b1-4)GlcNAc
# Summary of the method: as §1
# [17] = molecular target: Neu5Ac(a2-3)Gal(b1-4)GlcNAc(b1-2)[Neu5Ac(a2-3)Gal(b1-4)GlcNAc(b1-6)]Man(a1-6)[Neu5Ac(a2-3)Gal(b1-4)GlcNAc(b1-2)Man(a1-3)][GlcNAc(b1-4)]Man(b1-4)GlcNAc(b1-4)GlcNAc
# Summary of the method: as §1
# [18] = molecular target: Neu5Ac(a2-3)Gal(b1-4)GlcNAc(b1-3)Gal
# Summary of the method: as §1
# [19] = molecular target: Neu5Ac(a2-3)Gal(b1-4)GlcNAc(b1-3)Gal(b1-3)GlcNAc
# Summary of the method: as §1
# [20] = molecular target: Neu5Ac(a2-3)Gal(b1-4)GlcNAc(b1-3)Gal(b1-4)GlcNAc
# Summary of the method: as §1
# [21] = molecular target: Neu5Ac(a2-3)Gal(b1-4)GlcNAc(b1-3)Gal(b1-4)GlcNAc(b1-2)Man(a1-3)[Neu5Ac(a2-3)Gal(b1-4)GlcNAc(b1-3)Gal(b1-4)GlcNAc(b1-2)Man(a1-6)]Man(b1-4)GlcNAc(b1-4)GlcNAc
# Summary of the method: as §1
# [22] = molecular target: Neu5Ac(a2-3)Gal(b1-4)GlcNAc(b1-3)Gal(b1-4)GlcNAc(b1-3)Gal(b1-4)GlcNAc
# Summary of the method: as §1
# [23] = molecular target: Neu5Ac(a2-3)Gal(b1-4)GlcNAc(b1-3)Gal(b1-4)GlcNAc(b1-3)Gal(b1-4)GlcNAc(b1-2)Man(a1-3)[Neu5Ac(a2-3)Gal(b1-4)GlcNAc(b1-3)Gal(b1-4)GlcNAc(b1-3)Gal(b1-4)GlcNAc(b1-2)Man(a1-6)]GalNAc
# Summary of the method: as §1
# [24] = molecular target: Neu5Ac(a2-3)Gal(b1-4)GlcNAc(b1-3)Gal(b1-4)GlcNAc(b1-3)GalNAc
# Summary of the method: as §1
# [25] = molecular target: Neu5Ac(a2-3)Gal(b1-4)GlcNAc(b1-3)Gal(b1-4)GlcNAc(b1-3)[Neu5Ac(a2-3)Gal(b1-4)GlcNAc(b1-3)Gal(b1-4)GlcNAc(b1-6)]GalNAc
# Summary of the method: as §1
# [26] = molecular target: Neu5Ac(a2-3)Gal(b1-4)GlcNAc(b1-3)Gal(b1-4)GlcNAc(b1-6)[Gal(b1-3)]GalNAc
# Summary of the method: as §1
# [27] = molecular target: Neu5Ac(a2-3)Gal(b1-4)GlcNAc(b1-3)Gal(b1-4)[Fuc(a1-3)]GlcNAc
# Summary of the method: as §1
# [28] = molecular target: Neu5Ac(a2-3)Gal(b1-4)GlcNAc(b1-3)GalNAc
# Summary of the method: as §1
# [29] = molecular target: Neu5Ac(a2-3)Gal(b1-4)GlcNAc(b1-3)[Neu5Ac(a2-3)Gal(b1-4)GlcNAc(b1-6)]GalNAc
# Summary of the method: as §1
# [30] = molecular target: Neu5Ac(a2-3)Gal(b1-4)GlcNAc(b1-6)GalNAc
# Summary of the method: as §1
# [31] = molecular target: Neu5Ac(a2-3)Gal(b1-4)GlcNAc(b1-6)[Gal(b1-3)]GalNAc
# Summary of the method: as §1
# [32] = molecular target: Neu5Ac(a2-3)Gal(b1-4)GlcNAc(b1-6)[Neu5Ac(a2-3)Gal(b1-3)]GalNAc
# Summary of the method: as §1
# [33] = molecular target: Neu5Ac(a2-3)Gal(b1-4)GlcNAc6S
# Summary of the method: as §1
# [34] = molecular target: Neu5Ac(a2-3)Gal(b1-4)[Fuc(a1-3)]GlcNAc
# Summary of the method: as §1
# [35] = molecular target: Neu5Ac(a2-3)Gal(b1-4)[Fuc(a1-3)]GlcNAc(b1-2)Man
# Summary of the method: as §1
# [36] = molecular target: Neu5Ac(a2-3)Gal(b1-4)[Fuc(a1-3)]GlcNAc(b1-3)Gal
# Summary of the method: as §1
# [37] = molecular target: Neu5Ac(a2-3)Gal(b1-4)[Fuc(a1-3)]GlcNAc(b1-3)Gal(b1-4)GlcNAc
# Summary of the method: as §1
# [38] = molecular target: Neu5Ac(a2-3)Gal(b1-4)[Fuc(a1-3)]GlcNAc(b1-3)Gal(b1-4)[Fuc(a1-3)]GlcNAc(b1-3)Gal(b1-4)[Fuc(a1-3)]GlcNAc
# Summary of the method: as §1
# [39] = molecular target: Neu5Ac(a2-3)Gal(b1-4)[Fuc(a1-3)]GlcNAc(b1-3)GalNAc
# Summary of the method: as §1
# [40] = molecular target: Neu5Ac(a2-3)Gal(b1-4)[Fuc(a1-3)]GlcNAc(b1-6)[Gal(b1-3)]GalNAc
# Summary of the method: as §1
# [41] = molecular target: Neu5Ac(a2-3)Gal(b1-4)[Fuc(a1-3)]GlcNAc(b1-6)[Neu5Ac(a2-3)Gal(b1-3)]GalNAc
# Summary of the method: as §1
# [42] = molecular target: Neu5Ac(a2-3)Gal(b1-4)[Fuc(a1-3)]GlcNAc6S
# Summary of the method: as §1
# [43] = molecular target: Neu5Ac(a2-3)Gal6S(b1-4)GlcNAc
# Summary of the method: as §1
# [44] = molecular target: Neu5Ac(a2-3)Gal6S(b1-4)[Fuc(a1-3)]GlcNAc
# Summary of the method: as §1
binder,measurement,setting,value
B1,glycan array binding signal (z-score),[1],-0.896
same,glycan array binding signal (z-score),[2],0.596
same,glycan array binding signal (z-score),[3],1.27
same,glycan array binding signal (z-score),[4],0.637
same,glycan array binding signal (z-score),[5],0.412
same,glycan array binding signal (z-score),[6],0.217
same,glycan array binding signal (z-score),[7],1.26
same,glycan array binding signal (z-score),[8],0.297
same,glycan array binding signal (z-score),Neu5Ac(a2-3)Gal(b1-4)Glc,0.304
same,glycan array binding signal (z-score),[9],-0.808
same,glycan array binding signal (z-score),[10],-0.036
same,glycan array binding signal (z-score),[11],-0.287
same,glycan array binding signal (z-score),[12],-0.033
same,glycan array binding signal (z-score),[13],-0.892
same,glycan array binding signal (z-score),[14],0.14
same,glycan array binding signal (z-score),[15],-0.083
same,glycan array binding signal (z-score),[16],-0.325
same,glycan array binding signal (z-score),[17],-0.623
same,glycan array binding signal (z-score),[18],-0.076
same,glycan array binding signal (z-score),[19],-0.69
same,glycan array binding signal (z-score),[20],-0.145
same,glycan array binding signal (z-score),[21],0.94
same,glycan array binding signal (z-score),[22],-0.348
same,glycan array binding signal (z-score),[23],3.53
same,glycan array binding signal (z-score),[24],-0.203
same,glycan array binding signal (z-score),[25],-0.67
same,glycan array binding signal (z-score),[26],0.745
same,glycan array binding signal (z-score),[27],-0.192
same,glycan array binding signal (z-score),[28],-1.44
same,glycan array binding signal (z-score),[29],0.851
same,glycan array binding signal (z-score),[30],-0.07
same,glycan array binding signal (z-score),[31],-0.393
same,glycan array binding signal (z-score),[32],-0.368
same,glycan array binding signal (z-score),[33],1.35
same,glycan array binding signal (z-score),[34],-1.4
same,glycan array binding signal (z-score),[35],-0.015
same,glycan array binding signal (z-score),[36],-0.509
same,glycan array binding signal (z-score),[37],1.72
same,glycan array binding signal (z-score),[38],-0.112
same,glycan array binding signal (z-score),[39],2.61
same,glycan array binding signal (z-score),[40],1.2
same,glycan array binding signal (z-score),[41],1
same,glycan array binding signal (z-score),[42],-1.07
same,glycan array binding signal (z-score),[43],-0.317
same,glycan array binding signal (z-score),[44],-2.23

# Rewritten with bars between the fields: part of the list above
binder | measurement | setting | value
B1 | glycan array binding signal (z-score) | [13] | -0.892
same | glycan array binding signal (z-score) | [14] | 0.14

# Reference: the supplement of paper PMC8728848
